Experimental data published in patent US20210163580A1 (NATIONAL HEALTH RESEARCH INSTITUTES, published 2021).
Results are given in words; binding and its absence hold for the method and conditions named. Some binding calls cover weakened binding; strength is not graded here. For some assays here: Sequences can lack the tags named with a protein.

Experiments:
[1] = target: T1, RSPO3(33-210)-Fc (Homo sapiens) (UniProt Q9BXY4); assay: ELISA: fragment coated on the plate, biotinylated hB1, streptavidin-HRP, OD 450 [A), left graph]
T1 sequence (fusion chain, looked up): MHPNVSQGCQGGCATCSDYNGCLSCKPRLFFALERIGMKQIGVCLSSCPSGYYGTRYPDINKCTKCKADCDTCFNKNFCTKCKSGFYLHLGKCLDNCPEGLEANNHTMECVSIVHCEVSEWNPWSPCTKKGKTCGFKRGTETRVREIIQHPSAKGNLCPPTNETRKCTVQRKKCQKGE

[2] = target: T2, RSPO3(22-115)-his-Fc (Homo sapiens) (UniProt Q9BXY4); assay: ELISA: fragment coated on the plate, biotinylated hB1, streptavidin-HRP, OD 450 [A), right graph]
T2 sequence (fusion chain, looked up): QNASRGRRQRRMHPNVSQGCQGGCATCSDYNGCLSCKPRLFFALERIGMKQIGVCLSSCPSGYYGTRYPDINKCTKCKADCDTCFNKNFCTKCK

[3] = target: T3, RSPO3(22-86)-his-Fc (Homo sapiens) (UniProt Q9BXY4); assay: as above
T3 sequence (fusion chain, looked up): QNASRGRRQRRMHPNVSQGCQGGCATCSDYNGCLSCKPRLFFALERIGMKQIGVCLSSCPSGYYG

[4] = target: T4, RSPO3 22-144 (Homo sapiens) (UniProt Q9BXY4); assay: ELISA: fragment coated on the plate, biotinylated hB1, streptavidin-HRP, OD 450 [A), middle graph]
T4 sequence (single chain, looked up): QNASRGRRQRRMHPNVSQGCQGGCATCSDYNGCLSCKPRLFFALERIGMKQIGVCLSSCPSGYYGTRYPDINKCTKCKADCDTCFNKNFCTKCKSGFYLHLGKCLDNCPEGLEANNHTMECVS

[5] = target: T5, RSPO3 22-202 (Homo sapiens) (UniProt Q9BXY4); assay: as above
T5 sequence (single chain, looked up): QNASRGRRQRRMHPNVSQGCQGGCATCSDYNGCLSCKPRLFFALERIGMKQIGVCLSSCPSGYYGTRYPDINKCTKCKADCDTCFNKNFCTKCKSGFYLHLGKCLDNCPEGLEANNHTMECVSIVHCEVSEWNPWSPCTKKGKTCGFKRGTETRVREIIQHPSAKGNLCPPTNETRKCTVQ

Measured: binding

B1: humanized anti-RSPO3 antibody hB1 (antibody, V domains shown)
VH: QIQLQESGPGLVKPSESLSLTCSVTGYSITSGYYWNWIRQFPGNGLEWMGYISYDGTNNYNPSLKDRISITRDTSKNQFFLKLNSVTAADTATYYCSVLLIQYFNIWGKGTTVTVSS
VL: DIQMTQSPSSLSASVGERVTITCRTSESVNNFLAWFHQKPGKSPKLLVYHAKTLADGVSSRFSGSGSGTQYSLKINSLQPEDFGNYYCQHFWSIPWTFGGGTKLEIKR
notes: Humanized from murine B1
binds: [1] | [2] | [3] | [4] | [5]
